Data as given in PubChem BioAssay AID1259308 (NCATS, 2017)

Assay: 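Genes whose loss raises luciferase production in HEK293 cells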 (primary screen)
Cell system: human HEK293 embryonic kidney cells stably expressing firefly luciferase (HEK-CMV-Luc2-Hygro)
Reagents: single siRNA against human genes, 0.8 pmol siRNA per well
Time to read-out: 72 h
Measurement: 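Reporter luminescence and viable-cell signal on separate replicate plates, given as percent of non-targeting control and median/MAD z-scores, plus per-cell luciferase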
Direction: total luciferase, z-score and total luciferase, % of control: higher = more reporter protein produced
Rule for the call: 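Active when the median/MAD z-score for overall luciferase is greater than 3; a gene was taken forward for validation with new siRNAs if at least two of its three siRNAs passed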
Meaning of the calls: active = raised luciferase; inactive = no rise
Shown is one part, drawn at random, of about 59,000 reagents. In the full data, about 1,510 (2.6%) got an active call. 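Calls use total luciferase alone and ignore viability, so some active siRNAs may act by altering cell number.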 The numbers tell different reagents against one gene apart. Not all columns of the deposit are shown.

For RPS2P45 (GeneID 80052) #1, what does the deposit list?
total luciferase, z-score: 0.182; total luciferase, % of control: 85.5; Outcome: inactive

How did the screen score RPS2P45 (GeneID 80052) #2?
total luciferase, z-score: 0.174; total luciferase, % of control: 85.3; Outcome: inactive

What did the screen give for RPS2P45 (GeneID 80052) #3?
total luciferase, z-score: 0.294; total luciferase, % of control: 87.7; Outcome: inactive

With LY6D (GeneID 8581) #1, what does the deposit list?
total luciferase, z-score: 2.62; total luciferase, % of control: 134; Outcome: inactive

For LY6D (GeneID 8581) #2, what was measured?
total luciferase, z-score: 0.283; total luciferase, % of control: 87.5; Outcome: inactive

With LY6D (GeneID 8581) #3, what does the deposit list?
total luciferase, z-score: -0.675; total luciferase, % of control: 68.5; Outcome: inactive

Which result is listed for S100A10 (GeneID 6281) #1?
total luciferase, z-score: 1.87; total luciferase, % of control: 119; Outcome: inactive

How did the screen score S100A10 (GeneID 6281) #2?
total luciferase, z-score: 0.308; total luciferase, % of control: 88; Outcome: inactive

For S100A10 (GeneID 6281) #3, how do the results read?
total luciferase, z-score: 2.2; total luciferase, % of control: 126; Outcome: inactive

For AGO3 (GeneID 192669) #1, what does the deposit list?
total luciferase, z-score: -0.126; total luciferase, % of control: 79.4; Outcome: inactive

For AGO3 (GeneID 192669) #2, what was measured?
total luciferase, z-score: -2.03; total luciferase, % of control: 41.5; Outcome: inactive

With AGO3 (GeneID 192669) #3, how do the results read?
total luciferase, z-score: -0.993; total luciferase, % of control: 62.1; Outcome: inactive

Which result is listed for EZR (GeneID 7430) #1?
total luciferase, z-score: 0.619; total luciferase, % of control: 94.2; Outcome: inactive

With EZR (GeneID 7430) #2, what was measured?
total luciferase, z-score: -0.179; total luciferase, % of control: 78.3; Outcome: inactive

What did the screen give for EZR (GeneID 7430) #3?
total luciferase, z-score: 0.443; total luciferase, % of control: 90.7; Outcome: inactive

For WIF1 (GeneID 11197) #1, what was measured?
total luciferase, z-score: -0.329; total luciferase, % of control: 75.3; Outcome: inactive

For WIF1 (GeneID 11197) #2, what does the deposit list?
total luciferase, z-score: -1.96; total luciferase, % of control: 42.9; Outcome: inactive

What did the screen give for WIF1 (GeneID 11197) #3?
total luciferase, z-score: -0.917; total luciferase, % of control: 63.6; Outcome: inactive

For LOC646853 (GeneID 646853) #1, what was measured?
total luciferase, z-score: -0.546; total luciferase, % of control: 71; Outcome: inactive

With LOC646853 (GeneID 646853) #2, what was measured?
total luciferase, z-score: 0.104; total luciferase, % of control: 84; Outcome: inactive

Which result is listed for LOC646853 (GeneID 646853) #3?
total luciferase, z-score: 0.474; total luciferase, % of control: 91.3; Outcome: inactive

Copied from the entries so far (2 entries):
LY6D (GeneID 8581) #1 → total luciferase, z-score: 2.62; total luciferase, % of control: 134; Outcome: inactive
LY6D (GeneID 8581) #2 → total luciferase, z-score: 0.283; total luciferase, % of control: 87.5; Outcome: inactive

Additional reagents follow.
What did the screen give for TM7SF2 (GeneID 7108) #1?
total luciferase, z-score: -0.615; total luciferase, % of control: 69.7; Outcome: inactive

What is on record for TM7SF2 (GeneID 7108) #2?
total luciferase, z-score: 1.43; total luciferase, % of control: 110; Outcome: inactive

Which result is listed for TM7SF2 (GeneID 7108) #3?
total luciferase, z-score: -0.0291; total luciferase, % of control: 81.3; Outcome: inactive

What did the screen give for PTEN (GeneID 5728) #1?
total luciferase, z-score: 1.09; total luciferase, % of control: 104; Outcome: inactive

Which result is listed for PTEN (GeneID 5728) #2?
total luciferase, z-score: 0.0238; total luciferase, % of control: 82.4; Outcome: inactive

Which result is listed for PTEN (GeneID 5728) #3?
total luciferase, z-score: -0.263; total luciferase, % of control: 76.7; Outcome: inactive

What is on record for EXOC6B (GeneID 23233) #1?
total luciferase, z-score: 0.288; total luciferase, % of control: 87.6; Outcome: inactive

What did the screen give for EXOC6B (GeneID 23233) #2?
total luciferase, z-score: -0.272; total luciferase, % of control: 76.5; Outcome: inactive

Which result is listed for EXOC6B (GeneID 23233) #3?
total luciferase, z-score: 0.564; total luciferase, % of control: 93.1; Outcome: inactive

With LOC644634 (GeneID 644634) #1, what does the deposit list?
total luciferase, z-score: 0.576; total luciferase, % of control: 93.3; Outcome: inactive

For LOC644634 (GeneID 644634) #2, what was measured?
total luciferase, z-score: -1.59; total luciferase, % of control: 50.2; Outcome: inactive

What is on record for LOC644634 (GeneID 644634) #3?
total luciferase, z-score: 3.63; total luciferase, % of control: 154; Outcome: active
